# In patent US20230293491A1, “COMPOSITIONS AND METHODS FOR DIAGNOSIS AND TREATMENT OF CONDITIONS RELATED TO THE QUALITY OF AGING AND LONGEVITY” (EPITRACKER, INC., priority 2020, published 2023):
# Tested on: Navy dolphins
# Assay: Correlations of serum histidine betaine concentrations with health indices in the dolphin serum metabolome
# Type: in vivo, bottlenose dolphins (Tursiops truncatus)
# Settings: wild Sarasota Bay dolphins vs Navy dolphins
compound,measurement,value
C[N+](C)(C)C(Cc1cnc[nH]1)C(=O)[O-] (stereo not shown) [histidine betaine],"Serum concentration, Sarasota vs Navy",2.96 (x times higher)
